Construct, isoform or probe ends are uncertain for at least one entry. No signal at the amounts used counts as a negative. For some of these results: Protein sequences can lack the tags named with them.

Chains of the proteins cited; added tags and fusions are not shown. Lines headed by an entry give the natural chain unless they say otherwise; changes in a name come on top.
UniProt Q9C5T4: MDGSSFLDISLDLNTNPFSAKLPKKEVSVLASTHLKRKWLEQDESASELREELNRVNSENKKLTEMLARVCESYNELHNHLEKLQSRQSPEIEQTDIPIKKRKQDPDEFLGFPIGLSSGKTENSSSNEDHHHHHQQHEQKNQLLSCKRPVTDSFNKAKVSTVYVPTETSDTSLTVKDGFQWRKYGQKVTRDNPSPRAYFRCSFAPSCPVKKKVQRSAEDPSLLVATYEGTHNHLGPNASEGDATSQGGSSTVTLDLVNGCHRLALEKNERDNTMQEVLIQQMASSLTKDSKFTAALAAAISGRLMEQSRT

Data set [1] deals with WRKY18 (UniProt Q9C5T4). In words: EMSA. To be noted: 200 fmol protein, 20 fmol probe, Pierce LightShift Chemiluminescent EMSA kit per manual, 200 fmol recombinant protein, 20 fmol biotin-labeled probe, pH and temperature not stated, label: 5' biotin.
Data set [2] has as its target T1, WRKY40 (UniProt Q9SAH7).
T1 sequence (looked up, limits assumed): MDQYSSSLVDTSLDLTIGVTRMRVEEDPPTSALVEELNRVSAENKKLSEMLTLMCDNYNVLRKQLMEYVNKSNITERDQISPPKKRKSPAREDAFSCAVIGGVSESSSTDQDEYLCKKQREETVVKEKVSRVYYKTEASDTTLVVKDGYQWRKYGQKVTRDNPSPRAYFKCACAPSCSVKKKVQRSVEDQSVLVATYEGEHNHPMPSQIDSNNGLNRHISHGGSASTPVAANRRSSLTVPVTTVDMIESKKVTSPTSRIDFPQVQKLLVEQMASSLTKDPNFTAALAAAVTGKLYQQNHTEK
In words: EMSA. To be noted: 200 fmol protein, 20 fmol probe, Pierce LightShift Chemiluminescent EMSA kit per manual, 200 fmol recombinant protein, 20 fmol biotin-labeled probe, pH and temperature not stated, label: 5' biotin.

For the sequence “GCTTGAATTGAACCATTGAATATG (double strand) [mPW60]”, the binding result in data set [1] and in data set [2] was “no binding” in each case.
For the sequence “GCTTGACTTGACCCATTGACTATG (double strand) [PW60]”, the binding result in data set [1] and in data set [2] was “binds” throughout.

Values taken from article PMC3023790.
